From paper PMC11429574, “Biophysical and Solution Structure Analysis of Critical Residues Involved in the Interaction between the PupB N-Terminal Signaling Domain and PupR C-Terminal Cell Surface Signaling Domain from Pseudomonas capeferrum” (Biomolecules, 2024) come the findings set out here.

In the assay the target is T1, PupB N-terminal signaling domain L74A (Pseudomonas capeferrum) (UniProt P38047).
T1 sequence: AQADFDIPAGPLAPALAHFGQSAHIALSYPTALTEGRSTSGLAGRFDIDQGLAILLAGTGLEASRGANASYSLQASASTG
Put plainly: condition: 140-230 µM MBP-PupR CCSSD titrated into 20-70 µM PupB NTSD mutant; ITC; MBP-PupR CCSSD (140-230 µM) titrated into PupB NTSD mutants (20-70 µM); 15 °C; 25 mM HEPES pH 7.5, 400 mM LiCl, 10% glycerol; triplicate, global single-site analysis (NITPIC, SEDPHAT); both purified.

Results are given in words; binding and its absence hold for the method and conditions named. Where a sequence is shown, tags or fusion partners need not be part of it.

B1: MBP-PupR C-terminal cell surface signaling domain (domain or fragment, Pseudomonas capeferrum)
chain: QDWRADYHSRIGEQRRLTLADGTQVQLNTDSALNVAFDQQARRLRLVRGEMLITRPALADSRPLWVDTEHGRLESTLAQFNVRLHGQHTQATVYQGSVALQPALHAYPPILLGAGEQASFNQQGLLARQAVAAVAPAWSQGMLVAQGQPLAAFIEDLARYRRGHLACDPALAGLRVSGTFPLENTDKIIAAVAETLQLEVQHFTRYWVTLKPRMA
notes: PupR, inner membrane sigma regulator (anti-sigma factor) of Pseudomonas capeferrum; periplasmic C-terminal cell surface signaling domain; residues A240 to A300 are named as interface residues; A TEV site lies between MBP and the domain; the MBP fusion was used uncleaved in the ITC for solubility and stability; also called MBP-PupR CCSSD; PupR CCSSD; not shown: MBP, N-terminal, kept
For the molecule B1, the binding entry is “no binding”.
